Assay results as given in paper PMC6182827.
No constants are given. Whether binding was seen depends on the method and setting. Binding seen in cells or lysates may run through a third protein. Some entries that bind do so weakly or less than the wild type.

Amino acid sequences for entries named in this document (tags omitted).
UniProt P35637: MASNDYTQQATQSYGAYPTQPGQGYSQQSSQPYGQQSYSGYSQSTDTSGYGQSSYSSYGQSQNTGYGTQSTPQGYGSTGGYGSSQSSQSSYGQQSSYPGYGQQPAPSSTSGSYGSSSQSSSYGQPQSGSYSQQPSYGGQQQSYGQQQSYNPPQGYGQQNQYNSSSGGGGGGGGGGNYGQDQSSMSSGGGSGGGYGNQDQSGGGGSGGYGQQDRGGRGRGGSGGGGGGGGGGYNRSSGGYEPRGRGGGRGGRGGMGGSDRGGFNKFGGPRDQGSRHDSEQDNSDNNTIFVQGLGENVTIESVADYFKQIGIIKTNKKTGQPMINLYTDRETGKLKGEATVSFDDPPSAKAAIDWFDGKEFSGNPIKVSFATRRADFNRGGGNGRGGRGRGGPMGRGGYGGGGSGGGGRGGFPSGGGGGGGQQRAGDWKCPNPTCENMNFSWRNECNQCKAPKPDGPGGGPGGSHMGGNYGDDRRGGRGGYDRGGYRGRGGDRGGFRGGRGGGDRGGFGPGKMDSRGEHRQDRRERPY
UniProt O00327: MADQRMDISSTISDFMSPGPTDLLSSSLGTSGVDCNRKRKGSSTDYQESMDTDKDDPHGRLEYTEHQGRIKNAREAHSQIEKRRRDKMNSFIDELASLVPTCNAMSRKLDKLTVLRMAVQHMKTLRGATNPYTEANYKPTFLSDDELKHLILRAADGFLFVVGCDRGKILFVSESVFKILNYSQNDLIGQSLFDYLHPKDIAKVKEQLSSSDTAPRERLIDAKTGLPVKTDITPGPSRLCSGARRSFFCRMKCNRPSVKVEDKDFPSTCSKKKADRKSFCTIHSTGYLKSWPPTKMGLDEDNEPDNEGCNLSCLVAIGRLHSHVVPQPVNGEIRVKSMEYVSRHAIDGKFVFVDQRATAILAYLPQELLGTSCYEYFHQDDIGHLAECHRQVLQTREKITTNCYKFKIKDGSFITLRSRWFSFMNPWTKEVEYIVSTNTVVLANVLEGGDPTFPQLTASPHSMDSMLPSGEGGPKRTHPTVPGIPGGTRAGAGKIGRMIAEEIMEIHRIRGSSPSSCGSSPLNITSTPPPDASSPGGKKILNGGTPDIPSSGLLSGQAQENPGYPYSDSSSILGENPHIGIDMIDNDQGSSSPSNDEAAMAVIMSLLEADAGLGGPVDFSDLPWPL

Target: FLAG-FUS (wild-type) (UniProt P35637)
Assay: co-IP; FLAG-tagged FUS constructs transfected in HEK293T (48 hrs); lysis in NP-40 buffer (150mM NaCl, 1% NP-40, 50 mM Tris pH 8.0, 0.25% deoxycholate); 1 mg lysate pre-cleaned with IgG, anti-FLAG (DYKDDDDK) protein A/G beads overnight; partners detected by western blot

binding	Molecule
binds	BMAL1 (from UniProt O00327 1-626)
binds	CLOCK (protein, UniProt O15516 1-846) MLFTVSCSKMSSIVDRDDSSIFDGLVEEDDKDKAKRVSRNKSEKKRRDQFNVLIKELGSMLPGNARKMDKSTVLQKSIDFLRKHKEITAQSDASEIRQDWKPTFLSNEEFTQLMLEALDGFFLAIMTDGSIIYVSESVTSLLEHLPSDLVDQSIFNFIPEGEHSEVYKILSTHLLESDSLTPEYLKSKNQLEFCCHMLRGTIDPKEPSTYEYVKFIGNFKSLNSVSSSAHNGFEGTIQRTHRPSYEDRVCFVATVRLATPQFIKEMCTVEEPNEEFTSRHSLEWKFLFLDHRAPPIIGYLPFEVLGTSGYDYYHVDDLENLAKCHEHLMQYGKGKSCYYRFLTKGQQWIWLQTHYYITYHQWNSRPEFIVCTHTVVSYAEVRAERRRELGIEESLPETAADKSQDSGSDNRINTVSLKEALERFDHSPTPSASSRSSRKSSHTAVSDPSSTPTKIPTDTSTPPRQHLPAHEKMVQRRSSFSSQSINSQSVGSSLTQPVMSQATNLPIPQGMSQFQFSAQLGAMQHLKDQLEQRTRMIEANIHRQQEELRKIQEQLQMVHGQGLQMFLQQSNPGLNFGSVQLSSGNSSNIQQLAPINMQGQVVPTNQIQSGMNTGHIGTTQHMIQQQTLQSTSTQSQQNVLSGHSQQTSLPSQTQSTLTAPLYNTMVISQPAAGSMVQIPSSMPQNSTQSAAVTTFTQDRQIRFSQGQQLVTKLVTAPVACGAVMVPSTMLMGQVVTAYPTFATQQQQSQTLSVTQQQQQQSSQEQQLTSVQQPSQAQLTQPPQQFLQTSRLLHGNPSTQLILSAAFPLQQSTFPQSHHQQHQSQQQQQLSRHRTDSLPDPSKVQPQ
